Assay results published in PubChem BioAssay AID2685 (National Center for Advancing Translational Sciences (NCATS), 2010).
The list shows a part of the results. The main result of the screen is listed elsewhere. These columns were measured beside it and carry no call. The list favours compounds with an active or inconclusive main result. Words in brackets tell the shape of the fitted curve; partial curves, single points and poor fits give uncertain potencies.

Experiment: qHTS Assay for Lipid Storage Modulators in Drosophila S3 Cells;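 for cell number change: cells counted by Cell Tracker Red CMTPX staining in the red channel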
Conditions: BODIPY lipid droplet fluorescence, 18-24 h; for cell number change: measured here: cell count max response, cells fed with added oleic acid
Outline: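 Drosophila S3 cells got compounds at several concentrations plus oleic acid (400 uM solution). Laser-scanning cytometry with 488 nm excitation read lipid droplets at 500-530 nm and cells at 575-640 nm. Percent activity was relative to 20 uM Triacsin C.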

[1] = measured here: lipid fluorescence (Fed channel) AC50, cells fed with added oleic acid
[2] = measured here: cell number channel AC50, cells fed with added oleic acid

| Structure (SMILES) | cell number change | AC50 [1] | AC50 [2] |
| --- | --- | --- | --- |
| CCOC(=O)c1cnc2ccc(Br)cc2c1NCC(C)O (stereo not drawn) | 0.527% | 0.58 µM [rising, single point] | – |
| CCC(C)NC(=O)CNC(=O)Cn1c(C)cc2ccccc2c1=O (stereo not drawn) | -23% | 29.1 µM [falling, single point] | – |
| O=C1C(Cc2ccccc2)C(c2ccccc2)N1c1ccccc1 (stereo not drawn) | -17.5% | – | – |
| CN(C)S(=O)(=O)c1cccc(NC(=O)COc2ccc3ccccc3c2)c1 | -14.8% | 10.3 µM [falling, partial curve, poor fit] | – |
| O=C(CN1CC(c2ccccc2)CC1=O)N/N=C/c1cc(Br)ccc1O (stereo not drawn) | -5.13% | 29.1 µM [falling, single point] | – |
| COC(=O)C1CCN(C(=O)COc2ccc(N(C)S(=O)(=O)c3ccc(C)cc3)cc2)CC1 | -12.7% | – | – |
| CCCCN(CCCC)S(=O)(=O)c1ccc(OC)c2ncccc12 | -25.8% | 6.51 µM [rising, single point] | – |
| CC(=O)N(/N=C1\Sc2ccccc2C1=O)c1ccccc1C | – | 29.1 µM [falling, single point] | – |
| O=[N+]([O-])c1ccccc1-c1cc(-c2cc(Cl)ccc2O)n[nH]1 | -43.9% | 18.4 µM [falling, single point] | 20.6 µM [falling, partial curve] |
| O=C1Nc2ccc([N+](=O)[O-])cc2OC1CCN1CCCC1 (stereo not drawn) | 1.94% | 0.517 µM [rising, partial curve, poor fit] | – |
| COc1ccc(N2CCN(C(=O)CN(c3cccc(Br)c3)S(C)(=O)=O)CC2)cc1 | 29.6% | – | – |
| COc1cc(OC)cc(C(=O)Nc2ccccc2C(=O)NC2CC2)c1 | 27.8% | 3.26 µM [rising, partial curve] | 0.82 µM [rising, full curve, poor fit] |
| CCCN1CCn2c3c(c4cc(Br)ccc42)CCCC31 (stereo not drawn) | – | 29.1 µM [falling, single point] | – |
| C=CCOC(=O)C1=C(C)NC(=O)NC1c1cc(Cl)cc(Cl)c1OC (stereo not drawn) | -42.1% | 1.84 µM [falling, full curve] | 13 µM [falling, partial curve] |
| O=C(NCC(=O)N1CCC(N2CCCCC2)CC1)C1CCCCC1 | -24.8% | 18.4 µM [falling, partial curve] | – |
| N/C(=N\S(=O)(=O)c1cc(C(F)(F)F)cc(C(F)(F)F)c1)c1cccs1 | -43.2% | 25.9 µM [falling, partial curve] | 23.1 µM [falling, partial curve] |
| CSCCC(NC(N)=O)C(=O)Nc1ccc(F)c(Cl)c1 (stereo not drawn) | 7.77% | – | – |
| CN(C)S(=O)(=O)c1ccc(Cl)c(NC(=O)COC(=O)c2ccc(O)cc2)c1 | -23.7% | – | – |
| Fc1ccccc1-n1c(-c2ccc3ccccc3n2)n[nH]c1=S | -0.923% | 0.517 µM [rising, partial curve, poor fit] | – |
| CCc1ccc(NC(=O)C(=O)N/N=C(\C)CC(=O)Nc2ccc(OC)cc2)cc1 | 17% | 1.16 µM [rising, single point] | – |

Three entries picked at random from those above, as already listed:

| Structure (SMILES) | cell number change | AC50 [1] | AC50 [2] |
| --- | --- | --- | --- |
| CSCCC(NC(N)=O)C(=O)Nc1ccc(F)c(Cl)c1 (stereo not drawn) | 7.77% | – | – |
| CCOC(=O)c1cnc2ccc(Br)cc2c1NCC(C)O (stereo not drawn) | 0.527% | 0.58 µM [rising, single point] | – |
| COc1ccc(N2CCN(C(=O)CN(c3cccc(Br)c3)S(C)(=O)=O)CC2)cc1 | 29.6% | – | – |

The list continues.

| Structure (SMILES) | cell number change | AC50 [1] | AC50 [2] |
| --- | --- | --- | --- |
| COc1ccc(OC)c(-c2csc(NC(=O)C3=NN(c4ccccc4)C(=O)CC3)n2)c1 | – | – | 0.0058 µM [rising, full curve, poor fit] |
| Cc1ccc(/C=C2/C(=N)N3N=C(CC(=O)N4CCCC4)SC3=NC2=O)cc1 | -4.01% | – | 3.26 µM [falling, single point] |
| Cc1cccc(Nc2nnc(SC3CCOC3=O)s2)c1C (stereo not drawn) | 37.9% | – | 13 µM [rising, single point] |
| CCNC(=O)C(C)NC(=O)C1=NN(c2ccccc2)C(=O)CC1 (stereo not drawn) | 19.2% | – | – |
| N#Cc1ccc(Oc2cc(C(F)(F)F)nc(-c3ccccn3)n2)cc1 | -6.45% | 1.64 µM [rising, partial curve] | 4.61 µM [rising, single point] |
| Cc1cc(S(=O)(=O)N2CCN(CC(=O)N(C)Cc3ccccc3)CC2)ccc1Br | 25% | 3.66 µM [falling, single point] | – |
| O=C(O)c1ccc(-n2cccn2)nc1 | 2.55% | – | – |
| Cc1cccc(CN2C(=O)N/C(=C/c3cc(C)n(-c4ccccn4)c3C)C2=O)c1 | 1.24% | 1.03 µM [rising, full curve] | 0.206 µM [rising, full curve, poor fit] |
| COc1ccccc1C1Nc2cccc3cccc(c23)N1 | -58.4% | 29.1 µM [falling, single point] | 29.1 µM [falling, single point] |
| COc1ccc(N2CCN(C(=O)c3cc4c(=O)n(Cc5ccccc5)ccc4nc3C)CC2)cc1 | -0.917% | – | – |
| CCCCNC(=O)CO/N=C(\C)c1cc2ccccc2o1 | 24% | 29.1 µM [rising, single point] | – |
| CCN1CCN(CCC(=O)Nc2cccc(C)c2)CC1 | 6.71% | 3.66 µM [falling, single point] | – |
| Cc1ccc(C)c(N2CCN(C(=O)CCCCCn3c(=S)[nH]c4ccc(N5CCOCC5)cc4c3=O)CC2)c1 | -31.1% | 14.6 µM [falling, partial curve] | 7.31 µM [falling, partial curve] |
| Cc1cc(C(=O)NCCN2C(=O)S/C(=C\c3cccs3)C2=O)ccc1[N+](=O)[O-] | 1.96% | – | – |
| CC(NC(=O)CN(C)S(=O)(=O)c1ccc2c(c1)c(=O)n(C)c(=O)n2C)c1ccccc1 (stereo not drawn) | -16.8% | 0.651 µM [falling, full curve] | – |
| CCC(C)NCCOc1ccccc1C (stereo not drawn) | 26.7% | – | 0.231 µM [rising, full curve, poor fit] |
| O=C(CN1C(=O)NC(c2ccccc2)(c2ccccc2)C1=O)NCC(=O)Nc1ccc(F)cc1 | 6.96% | 3.26 µM [rising, partial curve, poor fit] | – |
| Cc1nn(-c2ccccc2)nc1C(=O)OCC(=O)N1CCC(C)CC1 | -26.8% | 3.66 µM [falling, single point] | – |
| COc1ccc(C(C(=O)NC2CCCCC2)N(C(=O)c2ccccn2)c2cccnc2)c(OC)c1 (stereo not drawn) | 17.4% | – | – |
